From patent US20190183868A1, “FORMULATIONS AND TREATMENTS EMPLOYING HYDROXYPYRIDONATE ACTINIDE/LANTHANIDE DECORPORATION AGENTS” (priority 2016, published 2019)
Some entries share one result that the patent states for a list of compounds. At least one compound was matched to its structure with a doubt left.

Assay: Delayed parenteral (ip) chelation treatment of mice contaminated iv with ^238Pu-citrate
Format: in vivo, Swiss-Webster mice
Conditions: prompt treatment 1 hour post-contamination
Experimental: A stock solution of ^238Pu-nitrate in 4 M HNO3 was purchased from Eckert and Ziegler Isotope Products (Valencia, CA, USA) and used to prepare injection solutions. Contamination doses consisted of 0.2 mL aliquots of solutions containing 0.74 kBq (1.16 ng) of ^238Pu in 0.008 M sodium citrate and 0.14 M NaCl, pH 4. The ligands 3,4,3-LI(1,2-HOPO) and 5-LIO(Me-3,2-HOPO) were prepared by Synthetech, Inc. (Albany, Oreg., USA) and Albany Molecular Research, Inc. (Albany, NY, USA), respectively, as described previously. DTPA was obtained from Sigma-Aldrich (St. Louis, Mo., USA) and was formulated as Ca-DTPA using CaCO3 and NaOH, similarly to the formerly available drug product commercialized by Hameln Pharmaceuticals gmbh (Hameln, Germany). […]
All procedures and protocols used in the described in vivo studies were reviewed and approved by the Institutional Animal Care and Use Committee of Lawrence Berkeley National Laboratory and were performed in AAALAC accredited facilities. […] Gross body and tissue compositions, plasma, extracellular fluid, and red cell volumes of the whole body, major tissues and organs of these mice (intact or bled 25 to 40% of their total blood volume) have been determined previously. […]

Row | SMILES | immediate excretion of injected ^238Pu dose
1 | O=C(NCCCN(CCCCN(CCCNC(=O)c1cccc(=O)n1O)C(=O)c1cccc(=O)n1O)C(=O)c1cccc(=O)n1O)c1cccc(=O)n1O [3,4,3-LI(1,2-HOPO)] | more than 80%
2 | Cn1ccc(C(=O)NCCOCCNC(=O)c2ccn(C)c(=O)c2O)c(O)c1=O [5-LIO(Me-3,2-HOPO)] | more than 80%
